Test results from paper PMC10189953.
No constants are given. Whether binding was seen depends on the method and setting. Some entries that bind do so weakly or less than the wild type.

How the values were obtained:
[1] = target: T1, MUS81 (human, full-length, subunit of MUS81-EME1 and MUS81-EME2) (human) (UniProt Q96NY9); test: co-purification by column chromatography; human MUS81 complexes from bacterial lysate carried through Q-sepharose, SP-sepharose, His-Select nickel affinity gel and heparin; final pools checked on SDS-PAGE
T1 sequence: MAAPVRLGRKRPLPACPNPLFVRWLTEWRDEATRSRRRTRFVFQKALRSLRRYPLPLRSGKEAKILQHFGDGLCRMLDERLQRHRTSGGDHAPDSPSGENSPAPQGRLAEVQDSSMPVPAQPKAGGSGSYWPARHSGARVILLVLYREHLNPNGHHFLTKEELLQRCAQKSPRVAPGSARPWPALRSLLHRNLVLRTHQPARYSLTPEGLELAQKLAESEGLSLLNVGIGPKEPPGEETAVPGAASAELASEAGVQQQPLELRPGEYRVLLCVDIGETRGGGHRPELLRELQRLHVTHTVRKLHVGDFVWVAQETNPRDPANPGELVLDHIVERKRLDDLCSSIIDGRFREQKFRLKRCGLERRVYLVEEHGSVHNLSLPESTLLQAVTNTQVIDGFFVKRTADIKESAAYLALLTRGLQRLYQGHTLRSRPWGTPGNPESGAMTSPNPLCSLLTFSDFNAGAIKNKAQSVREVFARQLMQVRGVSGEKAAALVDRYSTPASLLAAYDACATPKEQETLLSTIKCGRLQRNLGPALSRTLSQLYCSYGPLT

[2] = target: T2, MUS81(246-551) nuclease-dead mutant (D338A, D339A) (human) (UniProt Q96NY9); test: as above
T2 sequence: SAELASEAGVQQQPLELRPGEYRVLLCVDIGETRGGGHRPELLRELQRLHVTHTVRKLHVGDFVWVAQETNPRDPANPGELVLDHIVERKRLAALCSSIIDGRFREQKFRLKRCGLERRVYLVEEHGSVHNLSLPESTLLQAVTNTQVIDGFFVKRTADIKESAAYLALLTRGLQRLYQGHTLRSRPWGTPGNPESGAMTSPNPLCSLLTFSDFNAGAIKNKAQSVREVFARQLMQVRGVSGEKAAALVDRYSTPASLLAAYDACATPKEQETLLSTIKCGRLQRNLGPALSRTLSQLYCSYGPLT

[3] = target: T3, MUS81(246-551), wild type, of the truncated complex MUS81(246-551)-EME1(178-570) (human) (UniProt Q96NY9); test: as above
T3 sequence: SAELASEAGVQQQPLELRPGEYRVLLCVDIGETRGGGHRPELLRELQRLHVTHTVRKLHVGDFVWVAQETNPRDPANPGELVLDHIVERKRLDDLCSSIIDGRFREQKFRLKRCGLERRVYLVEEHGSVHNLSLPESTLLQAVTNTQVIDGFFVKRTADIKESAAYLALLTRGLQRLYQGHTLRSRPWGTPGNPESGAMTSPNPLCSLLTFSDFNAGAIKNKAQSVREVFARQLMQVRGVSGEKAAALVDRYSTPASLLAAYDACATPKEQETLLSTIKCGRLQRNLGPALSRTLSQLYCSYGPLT

[4] = target: T4, Mus81 (S. cerevisiae, full-length, subunit of Mus81-Mms4) (S. cerevisiae) (UniProt Q04149); test: co-purification by column chromatography; S. cerevisiae Mus81-Mms4 from bacterial lysate carried through Q-sepharose, SP-sepharose, His-Select nickel affinity gel, hydroxyapatite and MonoS; final pool checked on SDS-PAGE
T4 sequence: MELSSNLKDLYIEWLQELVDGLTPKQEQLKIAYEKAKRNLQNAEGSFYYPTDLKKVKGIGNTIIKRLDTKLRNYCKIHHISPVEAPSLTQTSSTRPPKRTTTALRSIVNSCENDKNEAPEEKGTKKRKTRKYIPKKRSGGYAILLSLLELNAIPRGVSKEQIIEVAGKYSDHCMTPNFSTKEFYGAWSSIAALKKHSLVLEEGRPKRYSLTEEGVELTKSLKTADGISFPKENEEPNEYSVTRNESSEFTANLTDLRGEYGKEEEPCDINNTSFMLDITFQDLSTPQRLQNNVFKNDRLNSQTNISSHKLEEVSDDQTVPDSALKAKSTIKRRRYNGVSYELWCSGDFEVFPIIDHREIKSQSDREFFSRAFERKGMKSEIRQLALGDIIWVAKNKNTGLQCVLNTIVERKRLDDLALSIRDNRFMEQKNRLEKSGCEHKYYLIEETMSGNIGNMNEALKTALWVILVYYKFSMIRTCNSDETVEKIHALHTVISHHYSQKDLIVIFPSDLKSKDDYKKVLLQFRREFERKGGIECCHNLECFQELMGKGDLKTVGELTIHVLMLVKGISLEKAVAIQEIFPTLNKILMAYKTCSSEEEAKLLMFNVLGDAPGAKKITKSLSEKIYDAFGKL

B1: EME1 (human, full-length, subunit of MUS81-EME1) (protein, UniProt Q96AY2 1-570)
chain: MALKKSSPSLDSGDSDSEELPTFAFLKKEPSSTKRRQPEREEKIVVVDISDCEASCPPAPELFSPPVPEIAETVTQTQPVRLLSSESEDEEEFIPLAQRLTCKFLTHKQLSPEDSSSPVKSVLDHQNNEGASCDWKKPFPKIPEVPLHDTPERSAADNKDLILDPCCQLPAYLSTCPGQSSSLAVTKTNSDILPPQKKTKPSQKVQGRGSHGCRQQRQARQKESTLRRQERKNAALVTRMKAQRPEECLKHIIVVLDPVLLQMEGGGQLLGALQTMECRCVIEAQAVPCSVTWRRRAGPSEDREDWVEEPTVLVLLRAEAFVSMIDNGKQGSLDSTMKGKETLQGFVTDITAKTAGKALSLVIVDQEKCFSAQNPPRRGKQGANKQTKKQQQRQPEASIGSMVSRVDAEEALVDLQLHTEAQAQIVQSWKELADFTCAFTKAVAEAPFKKLRDETTFSFCLESDWAGGVKVDLAGRGLALVWRRQIQQLNRVSLEMASAVVNAYPSPQLLVQAYQQCFSDKERQNLLADIQVRRGEGVTSTSRRIGPELSRRIYLQMTTLQPHLSLDSAD
With B1 the binding [1] was “binds”.

B2: EME2 (human, full-length, subunit of MUS81-EME2) (protein, UniProt A4GXA9 1-379)
chain: MARVGPGRAGVSCQGRGRGRGGSGQRRPPTWEISDSDAEDSAGSEAAARARDPAGERRAAAEALRLLRPEQVLKRLAVCVDTAILEDAGADVLMEALEALGCECRIEPQRPARSLRWTRASPDPCPRSLPPEVWAAGEQELLLLLEPEEFLQGVATLTQISGPTHWVPWISPETTARPHLAVIGLDAYLWSRQHVSRGTQQPESPKVAGAEVAVSWPEVEEALVLLQLWANLDVLLVASWQELSRHVCAVTKALAQYPLKQYRESQAFSFCTAGRWAAGEPVARDGAGLQAAWRRQIRQFSRVSPAVADAVVTAFPSPRLLQQALEACSTERERMGLLADLPVPPSEGGRPRRVGPDLSRRICLFLTTANPDLLLDLGS
For B2, the binding [1] was “binds”.

B3: EME1(178-570) of the truncated complex MUS81(246-551)-EME1(178-570) (domain or fragment, UniProt Q96AY2 178-570)
chain: GQSSSLAVTKTNSDILPPQKKTKPSQKVQGRGSHGCRQQRQARQKESTLRRQERKNAALVTRMKAQRPEECLKHIIVVLDPVLLQMEGGGQLLGALQTMECRCVIEAQAVPCSVTWRRRAGPSEDREDWVEEPTVLVLLRAEAFVSMIDNGKQGSLDSTMKGKETLQGFVTDITAKTAGKALSLVIVDQEKCFSAQNPPRRGKQGANKQTKKQQQRQPEASIGSMVSRVDAEEALVDLQLHTEAQAQIVQSWKELADFTCAFTKAVAEAPFKKLRDETTFSFCLESDWAGGVKVDLAGRGLALVWRRQIQQLNRVSLEMASAVVNAYPSPQLLVQAYQQCFSDKERQNLLADIQVRRGEGVTSTSRRIGPELSRRIYLQMTTLQPHLSLDSAD
For B3, the binding [2] was “binds” and the binding [3] was “binds”.

B4: Mms4 (S. cerevisiae, full-length, subunit of Mus81-Mms4) (protein, UniProt P38257 1-691)
chain: MSQIVDFVEDKDSRNDASIQIIDGPSNVEIIALSESMDQDECKRAHVSSAEMIPSSPQRKSVSNDVENVDLNKSIELSAPFFQDISISKLDDFSTTVNSIIDSSLRNENNAKGNAKKLLDDLISDEWSADLESSGKKHNKSQYNLRDIAEKWGVQSLKNPEPIAVDCEYKTQGIGKTNSDISDSPKSQIGAADILFDFPLSPVKHENPTEEKHNSIANENSSPDNSLKPAGKQNHGEDGTSMAKRVYNKGEDEQEHLPKGKKRTIALSRTLINSTKLPDTVELNLSKFLDSSDSITTDVLSTPAKGSNIVRTGSQPIFSNANCFQEAKRSKTLTAEDPKCTKNTAREVSQLENYIAYGQYYTREDSKNKIRHLLKENKNAFKRVNQIYRDNIKARSQMIIEFSPSLLQLFKKGDSDLQQQLAPAVVQSSYNDSMPLLRFLRKCDSIYDFSNDFYYPCDPKIVEENVLILYYDAQEFFEQYTSQKKELYRKIRFFSKNGKHVILILSDINKLKRAIFQLENEKYKARVEQRLSGTEEALRPRSKKSSQVGKLGIKKFDLEQRLRFIDREWHVKIHTVNSHMEFINSLPNLVSLIGKQRMDPAIRYMKYAHLNVKSAQDSTETLKKTFHQIGRMPEMKANNVVSLYPSFQSLLEDIEKGRLQSDNEGKYLMTEAVEKRLYKLFTCTDPNDTIE
With B4 the binding [4] was “binds”.
